# Data from paper PMC4545792.
# Sequences of proteins named here, by UniProt entry; tags and fusion partners are left off. Residues count along the entry.
# UniProt Q61102, residues 23-752: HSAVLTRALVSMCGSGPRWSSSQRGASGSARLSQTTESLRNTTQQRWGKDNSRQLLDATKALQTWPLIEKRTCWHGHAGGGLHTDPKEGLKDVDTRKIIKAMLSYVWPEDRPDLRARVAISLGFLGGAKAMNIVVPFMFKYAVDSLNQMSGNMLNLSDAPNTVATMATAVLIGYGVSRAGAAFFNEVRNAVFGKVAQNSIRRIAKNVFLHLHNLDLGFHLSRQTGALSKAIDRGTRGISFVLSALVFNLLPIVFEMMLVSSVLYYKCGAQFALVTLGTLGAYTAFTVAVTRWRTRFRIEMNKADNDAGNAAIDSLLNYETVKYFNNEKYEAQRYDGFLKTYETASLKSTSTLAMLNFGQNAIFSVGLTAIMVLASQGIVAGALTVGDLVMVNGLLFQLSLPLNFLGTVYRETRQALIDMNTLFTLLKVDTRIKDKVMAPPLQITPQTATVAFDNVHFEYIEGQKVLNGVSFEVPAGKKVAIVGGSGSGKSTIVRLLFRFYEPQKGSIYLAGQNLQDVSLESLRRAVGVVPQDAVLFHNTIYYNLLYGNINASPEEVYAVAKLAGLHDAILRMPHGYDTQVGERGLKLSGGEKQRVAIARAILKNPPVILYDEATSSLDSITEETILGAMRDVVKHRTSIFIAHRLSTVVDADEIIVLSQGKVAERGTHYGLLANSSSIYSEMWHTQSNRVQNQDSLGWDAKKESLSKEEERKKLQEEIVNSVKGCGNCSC
# These are yes or no findings as the source states them, for the method shown. In cells and extracts the contact can be indirect. These calls come from enrichment with a bait or labelling near it, and not all partners need be listed. For some assays here: A no says only that the protein was not detected with the bait. Where a sequence is shown, tags or fusion partners need not be part of it.
# T1: FLAG-FECH (human ferrochelatase, wild type) (human) (UniProt P22830)
# T1 sequence: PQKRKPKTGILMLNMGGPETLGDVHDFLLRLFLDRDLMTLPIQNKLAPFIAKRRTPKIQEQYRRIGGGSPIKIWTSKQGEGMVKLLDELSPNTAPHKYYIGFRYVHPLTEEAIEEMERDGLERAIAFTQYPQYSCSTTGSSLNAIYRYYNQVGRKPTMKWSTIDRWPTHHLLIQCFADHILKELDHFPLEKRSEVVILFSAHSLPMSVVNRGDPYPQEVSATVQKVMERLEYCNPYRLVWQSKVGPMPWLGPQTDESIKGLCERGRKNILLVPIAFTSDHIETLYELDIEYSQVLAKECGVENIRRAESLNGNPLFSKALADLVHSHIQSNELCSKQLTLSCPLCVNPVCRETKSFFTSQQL
# T2: FLAG-FECH M76H variant (human ferrochelatase) (human) (UniProt P22830)
# T2 sequence: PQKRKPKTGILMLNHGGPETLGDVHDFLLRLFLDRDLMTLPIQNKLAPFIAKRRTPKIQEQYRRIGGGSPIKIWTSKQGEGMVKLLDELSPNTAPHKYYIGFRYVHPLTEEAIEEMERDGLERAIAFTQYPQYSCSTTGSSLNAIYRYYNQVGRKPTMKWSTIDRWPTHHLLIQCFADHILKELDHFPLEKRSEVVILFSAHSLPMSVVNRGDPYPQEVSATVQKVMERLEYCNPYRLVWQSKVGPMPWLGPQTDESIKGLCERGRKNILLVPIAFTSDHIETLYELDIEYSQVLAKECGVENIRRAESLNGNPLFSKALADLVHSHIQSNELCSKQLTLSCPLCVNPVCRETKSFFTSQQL
# T3: FLAG-PPOX (human protoporphyrinogen oxidase, carboxy terminal FLAG) (human) (UniProt P50336)
# T3 sequence: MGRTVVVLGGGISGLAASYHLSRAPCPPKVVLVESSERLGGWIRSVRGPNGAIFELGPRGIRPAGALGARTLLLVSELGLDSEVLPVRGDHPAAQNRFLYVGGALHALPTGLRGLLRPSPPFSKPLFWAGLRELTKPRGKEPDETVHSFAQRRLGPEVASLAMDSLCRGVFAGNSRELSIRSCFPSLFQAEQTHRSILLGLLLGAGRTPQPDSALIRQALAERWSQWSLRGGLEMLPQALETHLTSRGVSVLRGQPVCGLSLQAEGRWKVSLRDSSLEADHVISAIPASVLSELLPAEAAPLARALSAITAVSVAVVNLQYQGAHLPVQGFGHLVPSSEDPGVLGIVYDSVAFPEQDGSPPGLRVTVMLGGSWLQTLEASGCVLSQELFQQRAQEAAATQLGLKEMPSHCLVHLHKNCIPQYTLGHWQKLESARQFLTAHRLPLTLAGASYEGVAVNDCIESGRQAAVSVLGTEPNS
# T4: FLAG-FECH E343K variant (human ferrochelatase) (human) (UniProt P22830)
# T4 sequence: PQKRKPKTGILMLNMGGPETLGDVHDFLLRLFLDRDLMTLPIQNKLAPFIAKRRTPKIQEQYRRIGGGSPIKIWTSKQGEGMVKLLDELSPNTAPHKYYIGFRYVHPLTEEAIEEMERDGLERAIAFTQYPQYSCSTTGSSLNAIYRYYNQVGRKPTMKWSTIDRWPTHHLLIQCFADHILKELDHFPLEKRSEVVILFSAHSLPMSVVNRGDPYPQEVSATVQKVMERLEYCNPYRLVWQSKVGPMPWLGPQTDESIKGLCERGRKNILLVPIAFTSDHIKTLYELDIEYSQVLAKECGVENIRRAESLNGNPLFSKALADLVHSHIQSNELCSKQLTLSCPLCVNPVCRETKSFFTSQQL
# T5: FLAG-UROS (human uroporphyrinogen III synthase, amino terminal FLAG) (human) (UniProt P10746)
# T5 sequence: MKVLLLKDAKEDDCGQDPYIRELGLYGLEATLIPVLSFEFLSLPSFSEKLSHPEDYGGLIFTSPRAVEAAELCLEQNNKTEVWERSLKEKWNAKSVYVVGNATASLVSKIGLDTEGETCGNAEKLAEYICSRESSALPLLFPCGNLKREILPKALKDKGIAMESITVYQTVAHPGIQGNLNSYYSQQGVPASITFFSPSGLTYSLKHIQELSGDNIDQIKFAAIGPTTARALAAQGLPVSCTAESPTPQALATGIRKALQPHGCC
# T6: FLAG-HMBS (human hydroxymethylbilane synthase, amino terminal FLAG) (human) (UniProt P08397)
# T6 sequence: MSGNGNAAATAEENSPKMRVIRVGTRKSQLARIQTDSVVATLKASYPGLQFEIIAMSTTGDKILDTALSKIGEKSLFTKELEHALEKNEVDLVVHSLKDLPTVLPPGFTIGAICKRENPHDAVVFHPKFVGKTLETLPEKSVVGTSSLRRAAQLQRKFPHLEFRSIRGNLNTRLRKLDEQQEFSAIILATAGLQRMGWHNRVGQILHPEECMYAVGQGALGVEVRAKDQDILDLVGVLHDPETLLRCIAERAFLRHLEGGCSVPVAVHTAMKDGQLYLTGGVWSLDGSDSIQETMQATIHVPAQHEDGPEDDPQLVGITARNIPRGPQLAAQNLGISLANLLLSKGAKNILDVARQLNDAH
# T7: FLAG-PBGS (human porphobilinogen synthase, amino terminal FLAG) (human) (UniProt P13716)
# T7 sequence: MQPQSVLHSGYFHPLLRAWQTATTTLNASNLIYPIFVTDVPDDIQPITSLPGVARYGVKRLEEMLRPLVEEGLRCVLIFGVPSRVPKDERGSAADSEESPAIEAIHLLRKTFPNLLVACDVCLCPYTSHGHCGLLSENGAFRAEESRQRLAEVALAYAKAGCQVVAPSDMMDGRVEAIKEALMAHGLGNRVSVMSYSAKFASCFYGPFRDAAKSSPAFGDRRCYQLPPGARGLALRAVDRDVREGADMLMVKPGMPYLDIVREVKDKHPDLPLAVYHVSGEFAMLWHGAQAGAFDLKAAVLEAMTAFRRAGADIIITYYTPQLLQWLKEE
# T8: FLAG-UROD (human uroporphyrinogen III decarboxylase, amino terminal FLAG) (human) (UniProt P06132)
# T8 sequence: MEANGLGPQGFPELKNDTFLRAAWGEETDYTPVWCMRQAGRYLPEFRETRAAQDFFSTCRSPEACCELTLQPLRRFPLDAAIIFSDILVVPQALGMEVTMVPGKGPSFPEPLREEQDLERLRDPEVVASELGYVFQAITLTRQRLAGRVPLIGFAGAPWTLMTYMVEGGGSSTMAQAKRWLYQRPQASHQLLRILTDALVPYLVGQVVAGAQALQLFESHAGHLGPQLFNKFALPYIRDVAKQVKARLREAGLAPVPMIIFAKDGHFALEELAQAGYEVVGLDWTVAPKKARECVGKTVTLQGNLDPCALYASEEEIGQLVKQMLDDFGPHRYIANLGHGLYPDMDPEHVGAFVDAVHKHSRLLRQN
# Tests used:
# [1] = molecular target: T1, FLAG-FECH (human ferrochelatase, wild type) (human); experiment: affinity purification with mass spectrometry; FLAG-tagged human bait stably expressed in MEL cells induced 72 h with 1.5% DMSO; isolated mitochondria lysed in 50 mM Tris-HCl pH 7.5, 1 mM EDTA, 150 mM NaCl, 1% Nonidet P-40; anti-FLAG agarose overnight at 4°C, washes with 0.1% Nonidet P-40, elution with FLAG peptide, MudPIT MS; empty vector as control
# [2] = molecular target: T2, FLAG-FECH M76H variant (human ferrochelatase) (human); experiment: as above
# [3] = molecular target: T3, FLAG-PPOX (human protoporphyrinogen oxidase, carboxy terminal FLAG) (human); experiment: as above
# [4] = molecular target: T4, FLAG-FECH E343K variant (human ferrochelatase) (human); experiment: as above
# [5] = molecular target: T5, FLAG-UROS (human uroporphyrinogen III synthase, amino terminal FLAG) (human); experiment: affinity purification with mass spectrometry; FLAG-tagged human bait stably expressed in MEL cells induced 72 h with 1.5% DMSO; cytosolic fraction pre-cleared, anti-FLAG agarose overnight at 4°C, buffers (50 mM Tris-HCl pH 7.5, 1 mM EDTA, 150 mM NaCl) without detergent, elution with FLAG peptide, MudPIT MS; empty vector as control
# [6] = molecular target: T6, FLAG-HMBS (human hydroxymethylbilane synthase, amino terminal FLAG) (human); experiment: as above
# [7] = molecular target: T7, FLAG-PBGS (human porphobilinogen synthase, amino terminal FLAG) (human); experiment: as above
# [8] = molecular target: T8, FLAG-UROD (human uroporphyrinogen III decarboxylase, amino terminal FLAG) (human); experiment: as above
Molecule,binding [1],binding [2],binding [3],binding [4],binding [5],binding [6],binding [7],binding [8]
mouse abcb7 (from UniProt Q61102 23-752),binds,binds,binds,binds,–,–,–,–
"mouse porphobilinogen synthase (enzyme, UniProt P10518 1-330) MHHQSVLHSGYFHPLLRSWQTAASTVSASNLIYPIFVTDVPDDVQPIASLPGVARYGVNQLEEMLRPLVEAGLRCVLIFGVPSRVPKDEQGSAADSEDSPTIEAVRLLRKTFPSLLVACDVCLCPYTSHGHCGLLSENGAFLAEESRQRLAEVALAYAKAGCQVVAPSDMMDGRVEAIKAALLKHGLGNRVSVMSYSAKFASCFYGPFRDAAQSSPAFGDRRCYQLPPGARGLALRAVARDIQEGADMLMVKPGLPYLDMVREVKDKHPELPLAVYQVSGEFAMLWHGAQAGAFDLRTAVLETMTAFRRAGADIIITYFAPQLLKWLKEE",–,–,–,–,no binding,no binding,binds,no binding
"mouse hydroxymethylbilane synthase (enzyme, UniProt P22907 1-361) MSGNGGAATTAEENGSKMRVIRVGTRKSQLARIQTDTVVAMLKALYPGIQFEIIAMSTTGDKILDTALSKIGEKSLFTKELENALEKNEVDLVVHSLKDVPTILPPGFTIGAICKRENPCDAVVFHPKFIGKTLETLPEKSAVGTSSLRRVAQLQRKFPHLEFKSIRGNLNTRLRKLDELQEFSAIVLAVAGLQRMGWQNRVGQILHPEECMYAVGQGALAVEVRAKDQDILDLVSVLHDPETLLRCIAERAFLRHLEGGCSVPVAVHTVMKDGQLYLTGGVWSLDGSDSMQETMQATIQVPVQQEDGPEDDPQLVGITARNIPRGAQLAAENLGISLASLLLNKGAKNILDVARQLNDVR",–,–,–,–,no binding,binds,no binding,no binding
"mouse uroporphyrinogen III decarboxylase (enzyme, UniProt P70697 1-367) MEANGFGLQNFPELKNDTFLRAAWGEETDYTPVWCMRQAGRYLPEFRETRAAQDFFSTCRSPEACCELTLQPLRRFPLDAAIIFSDILVVPQALGMEVTMVPGKGPSFPEPLREERDLERLRDPAAAASELGYVFQAITLTRQRLAGRVPLIGFAGAPWTLMTYMVEGGSSSTMAQAKRWLYQRPQASHKLLGILTDVLVPYLIGQVAAGAQALQLFESHAGHLGTELFSKFALPYIRDVAKRVKAGLQKAGLAPVPMIIFAKDGHFALEELAQAGYEVVGLDWTVAPKKARERVGKAVTLQGNLDPCALYASEEEIGRLVQQMLDDFGPQRYIANLGHGLYPDMDPERVGAFVDAVHKHSRLLRQN",–,–,–,–,no binding,no binding,no binding,binds
"mouse uroporphyrinogen III synthase (enzyme, UniProt P51163 1-265) MKVLLLKDAKEDDSGLDPYIQELRLCGLEATLIPVLSFEFMSLPSLSEKLSHPEGFGGLIFTSPRAVEAVKLCLEKDNKTEAWEKSLKDRWNAKSVYVVGSATASLVNKIGLDAEGAGSGNAEKLAEYICSKPSSELPLLFPCGTIKGDTLPKMLKDKGIPMESMHVYQTVPHPGIQGSLKSYYEDQGIPASITFFSPSGLKYSLEYIQALSGSSFDQIKFIAIGPSTTRAMAAKGLPVSCTAESPTPQALAAGIRNVLKPNHCC",–,–,–,–,no binding,no binding,no binding,no binding
